The text below walks through data of article PMC11061230.

Chains of the proteins cited; added tags and fusions are not shown.
UniProt Q9UIH9: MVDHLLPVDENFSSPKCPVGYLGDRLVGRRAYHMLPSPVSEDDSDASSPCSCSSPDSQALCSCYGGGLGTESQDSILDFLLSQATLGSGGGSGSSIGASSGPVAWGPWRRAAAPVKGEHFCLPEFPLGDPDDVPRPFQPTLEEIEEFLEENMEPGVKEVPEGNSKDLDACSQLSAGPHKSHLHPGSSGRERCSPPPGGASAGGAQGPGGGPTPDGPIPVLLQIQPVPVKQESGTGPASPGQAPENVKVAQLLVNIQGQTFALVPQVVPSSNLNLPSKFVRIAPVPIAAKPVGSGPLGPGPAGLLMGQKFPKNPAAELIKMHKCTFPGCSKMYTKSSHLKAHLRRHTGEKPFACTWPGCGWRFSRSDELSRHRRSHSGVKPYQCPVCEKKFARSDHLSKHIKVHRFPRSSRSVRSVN

For the assay, the target named is T1, myocardin-related transcription factor B (MRTFB), endogenous in HASMCs (human (endogenous in HASMCs)) (UniProt Q9ULH7).
T1 sequence: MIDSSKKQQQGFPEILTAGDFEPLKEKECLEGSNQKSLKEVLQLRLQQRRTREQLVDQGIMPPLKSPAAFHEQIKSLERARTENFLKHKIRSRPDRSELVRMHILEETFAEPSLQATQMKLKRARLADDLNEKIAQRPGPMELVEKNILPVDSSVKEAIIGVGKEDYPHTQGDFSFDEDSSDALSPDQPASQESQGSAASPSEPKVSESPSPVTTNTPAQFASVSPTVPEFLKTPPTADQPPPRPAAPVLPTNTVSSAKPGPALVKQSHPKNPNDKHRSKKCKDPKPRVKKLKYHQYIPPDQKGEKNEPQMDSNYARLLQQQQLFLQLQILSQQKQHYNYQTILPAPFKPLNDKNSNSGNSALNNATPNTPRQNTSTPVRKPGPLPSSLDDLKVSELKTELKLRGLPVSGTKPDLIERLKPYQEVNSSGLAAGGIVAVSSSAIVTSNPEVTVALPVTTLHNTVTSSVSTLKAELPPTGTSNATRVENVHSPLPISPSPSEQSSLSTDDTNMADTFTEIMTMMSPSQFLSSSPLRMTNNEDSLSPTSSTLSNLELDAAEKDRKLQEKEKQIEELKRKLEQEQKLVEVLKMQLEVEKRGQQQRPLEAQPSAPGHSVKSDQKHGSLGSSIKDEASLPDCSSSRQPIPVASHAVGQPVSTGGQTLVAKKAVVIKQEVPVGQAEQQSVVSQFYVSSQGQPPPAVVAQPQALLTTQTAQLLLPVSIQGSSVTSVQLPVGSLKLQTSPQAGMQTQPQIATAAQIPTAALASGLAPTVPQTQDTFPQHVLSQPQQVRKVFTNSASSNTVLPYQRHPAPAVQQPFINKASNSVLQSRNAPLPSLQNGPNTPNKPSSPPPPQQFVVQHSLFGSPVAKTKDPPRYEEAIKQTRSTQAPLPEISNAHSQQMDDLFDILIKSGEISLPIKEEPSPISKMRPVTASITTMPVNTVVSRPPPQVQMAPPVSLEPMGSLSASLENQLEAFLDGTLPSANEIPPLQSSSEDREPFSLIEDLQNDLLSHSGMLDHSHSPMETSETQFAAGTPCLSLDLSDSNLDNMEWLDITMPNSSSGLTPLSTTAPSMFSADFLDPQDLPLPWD
As to the kind of experiment: co-IP; HASMC lysate incubated with anti-MRTFB antibody or control IgG, then Protein A/G PLUS-beads, three washes; immunoblot with anti-KLF15 and anti-MRTFB antibodies.

Results are given in words; binding and its absence hold for the method and conditions named. In cells and extracts the contact can be indirect. Some binding calls cover weakened binding; strength is not graded here.

Consider “Krüppel-like factor 15 (KLF15), endogenous in HASMCs (from UniProt Q9UIH9 1-416)”, for which the binding result is given as “binds”.
